From article PMC4886168, “Effects of solid‐phase extraction of plasma in measuring gut metabolic hormones in fasted and fed blood of lean and diet‐induced obese rats” (Physiological Reports, 2016) come the findings set out here.

Marks after values point to notes of the source that are not given here.

A short description of data set [1]: Recovery of peptides added to rat plasma, measured with multiplex magnetic bead assay. The settings on record: for Slope (recovery), Multiplex extracted lean: lean plasma pool, 1 mL, solid-phase extracted (OASIS HLB) before assay, extractions in triplicate; for Slope (recovery), Multiplex extracted lean / Slope (recovery), Multiplex unextracted lean: inhibitors added to thawed pool just before peptides; for Slope (recovery), Multiplex extracted lean / Slope (recovery), Multiplex extracted lean, inhibitors added at time of blood collection / Slope (recovery), Multiplex extracted obese, inhibitors added at time of blood collection: regression slope (x100 = % recovery); for Slope (recovery), Multiplex extracted lean / Slope (recovery), Multiplex extracted lean, inhibitors added at time of blood collection / Slope (recovery), Multiplex extracted obese, inhibitors added at time of blood collection / Slope (recovery), Multiplex unextracted lean: mean ± SE; for Slope (recovery), Multiplex extracted lean, inhibitors added at time of blood collection: lean plasma, enzyme inhibitors in EDTA tubes at blood collection; for Slope (recovery), Multiplex extracted lean, inhibitors added at time of blood collection / Slope (recovery), Multiplex extracted obese, inhibitors added at time of blood collection: solid-phase extracted; for Slope (recovery), Multiplex extracted obese, inhibitors added at time of blood collection: plasma of fed DIO rats, enzyme inhibitors at blood collection; for average recovery, multiplex assay, unextracted spiked lean plasma / recovery, multiplex assay, extracted lean plasma: inhibitors added just before peptides; for average recovery, multiplex assay, unextracted spiked lean plasma: slope x100; for Slope (recovery), Multiplex unextracted lean: unextracted plasma pool of fasted lean rats, multiplex standards added at three concentrations, regression slope measured vs expected (x100 = % recovery); for recovery, multiplex assay, extracted lean plasma: 1 mL lean plasma solid-phase extracted before assay.

The nature of data set [2]: Recovery of peptides added to rat plasma, measured with individual ELIAs. To be noted: for Slope (recovery), ELIA extracted lean: lean plasma pool, 1 mL, solid-phase extracted (OASIS HLB) before assay, extractions in triplicate, inhibitors added to thawed pool just before peptides, regression slope (x100 = % recovery); for Slope (recovery), ELIA extracted lean / Slope (recovery), ELIA unextracted lean: mean ± SE; for mean peptide recovery, ELIA, unextracted spiked lean plasma / recovery, ELIA, extracted lean plasma: inhibitors added just before peptides; for mean peptide recovery, ELIA, unextracted spiked lean plasma: slope x100; for Slope (recovery), ELIA unextracted lean: unextracted plasma pool of fasted lean rats, multiplex standards added at three concentrations, enzyme inhibitors added to thawed pool just before peptides, regression slope of measured vs expected concentration (x100 = % recovery); for recovery, ELIA, extracted lean plasma: 1 mL lean plasma solid-phase extracted before assay.

[3] abbreviates: second experiment, inhibitors added at time of blood collection.

As to Ghrelin, in data set [1], the “Slope (recovery), Multiplex extracted lean” value is given as 0.20 ± 0.02; the “average recovery, multiplex assay, unextracted spiked lean plasma” value (from here on “average recovery, multiplex assay”) was determined as 26%; the “Slope (recovery), Multiplex unextracted lean” value is given as 0.26 ± 0.01 ^b. In data set [1] (second experiment), the “Slope (recovery), Multiplex extracted lean, inhibitors added at time of blood collection” value is given as 0.47 ± 0.10 and the “Slope (recovery), Multiplex extracted obese, inhibitors added at time of blood collection” value is given as 0.53 ± 0.06. Besides, in data set [2], the “Slope (recovery), ELIA extracted lean” value came to 0.22 ± 0.03; the “mean peptide recovery, ELIA, unextracted spiked lean plasma” value is listed as 47%; the “Slope (recovery), ELIA unextracted lean” value worked out at 0.47 ± 0.02.
As to `CC(C)C[C@H](NC(=O)[C@H](CC(N)=O)NC(=O)[C@H](CC(N)=O)NC(=O)[C@H](CO)NC(=O)[C@H](CO)NC(=O)[C@H](CCCNC(=N)N)NC(=O)[C@@H](NC(=O)[C@H](CC(C)C)NC(=O)[C@H](Cc1ccccc1)NC(=O)[C@H](CC(N)=O)NC(=O)[C@H](C)NC(=O)[C@H](CC(C)C)NC(=O)[C@H](CCCNC(=N)N)NC(=O)[C@H](CCC(N)=O)NC(=O)[C@@H](NC(=O)[C@H](C)NC(=O)[C@@H]1CSSC[C@H](NC(=O)[C@@H](N)CCCCN)C(=O)N[C@@H](CC(N)=O)C(=O)N[C@@H]([C@@H](C)O)C(=O)N[C@@H](C)C(=O)N[C@@H]([C@@H](C)O)C(=O)N1)[C@@H](C)O)C(C)C)C(=O)NCC(=O)N1CCC[C@H]1C(=O)N[C@H](C(=O)N[C@@H](CC(C)C)C(=O)N1CCC[C@H]1C(=O)N1CCC[C@H]1C(=O)N[C@H](C(=O)N[C@@H](CC(N)=O)C(=O)N[C@H](C(=O)NCC(=O)N[C@@H](CO)C(=O)N[C@@H](CC(N)=O)C(=O)N[C@H](C(=O)N[C@@H](Cc1ccc(O)cc1)C(N)=O)[C@@H](C)O)C(C)C)[C@@H](C)O)C(C)C` [Amylin], in data set [1], the “Slope (recovery), Multiplex extracted lean” value came to 0.75 ± 0.05; the “average recovery, multiplex assay” value is listed as 133%; the “Slope (recovery), Multiplex unextracted lean” value is given as 1.33 ± 0.01 ^b. For the same molecule, in data set [1] (second experiment), the “Slope (recovery), Multiplex extracted lean, inhibitors added at time of blood collection” value stood at 0.53 ± 0.05 and the “Slope (recovery), Multiplex extracted obese, inhibitors added at time of blood collection” value is 0.49 ± 0.04.
With `CC[C@H](C)[C@H](NC(=O)[C@H](Cc1ccccc1)NC(=O)[C@H](CCC(=O)O)NC(=O)[C@H](CCCCN)NC(=O)[C@H](C)NC(=O)[C@H](C)NC(=O)[C@H](CCC(N)=O)NC(=O)CNC(=O)[C@H](CCC(=O)O)NC(=O)[C@H](CC(C)C)NC(=O)[C@H](Cc1ccc(O)cc1)NC(=O)[C@H](CO)NC(=O)[C@H](CO)NC(=O)[C@@H](NC(=O)[C@H](CC(=O)O)NC(=O)[C@H](CO)NC(=O)[C@@H](NC(=O)[C@H](Cc1ccccc1)NC(=O)[C@@H](NC(=O)CNC(=O)[C@H](CCC(=O)O)NC(=O)[C@H](C)NC(=O)[C@@H](N)Cc1c[nH]cn1)[C@@H](C)O)[C@@H](C)O)C(C)C)C(=O)N[C@@H](C)C(=O)N[C@@H](Cc1c[nH]c2ccccc12)C(=O)N[C@@H](CC(C)C)C(=O)N[C@H](C(=O)N[C@@H](CCCCN)C(=O)NCC(=O)N[C@@H](CCCNC(=N)N)C(N)=O)C(C)C` [GLP‐1, Glucagon‐like peptide‐1], in data set [1], the “Slope (recovery), Multiplex extracted lean” value worked out at 0.52 ± 0.05; the “average recovery, multiplex assay” value turned out to be 77%; the “Slope (recovery), Multiplex unextracted lean” value was 0.77 ± 0.01 ^b. The “recovery, multiplex assay, extracted lean plasma, inhibitors at blood collection” value in data set [1] (setting [3]) was determined as 42%. For the same molecule, in data set [1] (second experiment), the “Slope (recovery), Multiplex extracted lean, inhibitors added at time of blood collection” value turned out to be 0.42 ± 0.06 and the “Slope (recovery), Multiplex extracted obese, inhibitors added at time of blood collection” value was 0.59 ± 0.03 ^d. Also, the “recovery, multiplex assay, extracted obese plasma, inhibitors at blood collection” value in data set [1] (second experiment, obese (fed DIO) plasma extracted, inhibitors added at time of blood collection) amounted to 59%.
Take GIP: in data set [1], the “Slope (recovery), Multiplex extracted lean” value turned out to be 0.56 ± 0.05; the “average recovery, multiplex assay” value is listed as 89%; the “Slope (recovery), Multiplex unextracted lean” value was 0.89 ± 0.04. Besides, in data set [1] (second experiment), the “Slope (recovery), Multiplex extracted lean, inhibitors added at time of blood collection” value is recorded as 0.33 ± 0.03 and the “Slope (recovery), Multiplex extracted obese, inhibitors added at time of blood collection” value amounted to 0.21 ± 0.10. In addition, in data set [2], the “Slope (recovery), ELIA extracted lean” value was found to be 0.71 ± 0.06 and the “Slope (recovery), ELIA unextracted lean” value is reported as 0.92 ± 0.04.
As to Insulin, in data set [1], the “recovery, multiplex assay, extracted lean plasma” value turned out to be 27%; the “Slope (recovery), Multiplex extracted lean” value is recorded as 0.27 ± 0.03 ^c; the “average recovery, multiplex assay” value was 55%; the “Slope (recovery), Multiplex unextracted lean” value was 0.55 ± 0.01 ^b. In data set [1] (second experiment), the “Slope (recovery), Multiplex extracted lean, inhibitors added at time of blood collection” value is 0.44 ± 0.04 and the “Slope (recovery), Multiplex extracted obese, inhibitors added at time of blood collection” value was found to be 0.62 ± 0.07. In data set [2], the “recovery, ELIA, extracted lean plasma” value came out at 59%; the “Slope (recovery), ELIA extracted lean” value is recorded as 0.59 ± 0.05; the “Slope (recovery), ELIA unextracted lean” value came out at 0.91 ± 0.01.

B1: Leptin (protein, UniProt P41160 22-167, looked up)
Leptin: VPIQKVQDDTKTLIKTIVTRINDISHTQSVSAKQRVTGLDFIPGLHPILSLSKMDQTLAVYQQVLTSLPSQNVLQIANDLENLRDLLHLLAFSKSCSLPQTSGLQKPESLDGVLEASLYSTEVVALSRLQGSLQDILQQLDVSPEC
notes: recombinant mouse leptin from National Hormones and Peptides Program; multiplex kit standard in recovery tests
B1: in data set [1], the “recovery, multiplex assay, extracted lean plasma” value amounted to 17%; the “Slope (recovery), Multiplex extracted lean” value amounted to 0.17 ± 0.05; the “average recovery, multiplex assay” value stood at 29%; the “Slope (recovery), Multiplex unextracted lean” value was 0.29 ± 0.01 ^b. Moreover, the “recovery, multiplex assay, extracted lean plasma, inhibitors at blood collection” value in data set [1] (setting [3]) is given as 8%. In data set [1] (second experiment), the “Slope (recovery), Multiplex extracted lean, inhibitors added at time of blood collection” value is reported as 0.08 ± 0.02 and the “Slope (recovery), Multiplex extracted obese, inhibitors added at time of blood collection” value was determined as 0.14 ± 0.07. Also, in data set [2], the “recovery, ELIA, extracted lean plasma” value stood at 28%; the “Slope (recovery), ELIA extracted lean” value was found to be 0.28 ± 0.08; the “mean peptide recovery, ELIA, unextracted spiked lean plasma” value stood at 100%; the “Slope (recovery), ELIA unextracted lean” value is listed as 1.00 ± 0.04.
